Values from PubChem BioAssay AID1259254 (NCATS, 2017)

Aim: 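Gene knock-downs that lead to re-replication, shown by excess G2 DNA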 (primary screen)
Cell system: human HCT116 colorectal cancer cells
Reagent: single siRNA against human genes
Timing: 3 days
Measurement: 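Imaged Hoechst DNA stain sorts each cell into a cycle phase by DNA amount; per plate, G2 fraction set to 0% for non-targeting and 100% for GMNN siRNA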
Direction: G2 robust z-score and G2 cells, % of GMNN control: higher = more G2 cells, more excess DNA replication; raw share of cells in G2: higher = larger share of cells with G2 DNA content
Call rule: 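An siRNA counts as active if its G2 robust z-score lies at least 5 MADs above the screen median; here such calls match roughly 38% of GMNN control or more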
Shown is one part, drawn at random, of about 59,000 reagents tested. In the full data, about 1,550 (2.6%) were called active. 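G2 share is only a proxy for re-replication; each gene was hit by three separate siRNAs, and active genes were retested.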 Raw values are not corrected between plates. The numbers tell different reagents against one gene apart. Not given: the amount of reagent.

| Target gene | siRNA no. | G2 robust z-score | G2 cells, % of GMNN control | raw share of cells in G2 (%) | outcome |
| --- | --- | --- | --- | --- | --- |
| ITGB3BP | 1 | 0.583 | 7.07 | 7.07 | inactive |
| ITGB3BP | 2 | 0.155 | 4.06 | 5.7 | inactive |
| ITGB3BP | 3 | 0.282 | 4.95 | 5.03 | inactive |
| LILRB4 | 1 | -0.0687 | 2.48 | 6.77 | inactive |
| LILRB4 | 2 | 0.233 | 4.6 | 5.33 | inactive |
| LILRB4 | 3 | 1.83 | 15.8 | 12.7 | inactive |
| DMGDH | 1 | -0.244 | 1.25 | 6.73 | inactive |
| DMGDH | 2 | 0.788 | 8.51 | 7.01 | inactive |
| DMGDH | 3 | 0.141 | 3.96 | 5.29 | inactive |
| IL9R | 1 | 3.07 | 24.6 | 15 | inactive |
| IL9R | 2 | 4.54 | 34.9 | 17 | inactive |
| IL9R | 3 | 9.37 | 68.9 | 30.1 | active |
| SELENOK | 1 | 0.00343 | 2.99 | 5.53 | inactive |
| SELENOK | 2 | 0.873 | 9.11 | 8.81 | inactive |
| SELENOK | 3 | -1.18 | -5.3 | 1.35 | inactive |
| RIOK3 | 1 | -0.248 | 1.22 | 5.97 | inactive |
| RIOK3 | 2 | 1.89 | 16.3 | 11.1 | inactive |
| RIOK3 | 3 | 0.317 | 5.2 | 5.35 | inactive |
| MORF4L2 | 1 | 1.8 | 15.7 | 11.1 | inactive |
| MORF4L2 | 2 | 0.824 | 8.76 | 6.19 | inactive |
| MORF4L2 | 3 | 5.44 | 41.3 | 20.8 | active |
| PAPOLB | 1 | -0.659 | -1.67 | 3.64 | inactive |
| PAPOLB | 2 | 1.51 | 13.6 | 12.4 | inactive |
| PAPOLB | 3 | -1.27 | -6 | 2.29 | inactive |
| KCNK15 | 1 | 0.997 | 9.98 | 8.92 | inactive |
| KCNK15 | 2 | -0.934 | -3.61 | 3.56 | inactive |
| KCNK15 | 3 | -0.492 | -0.496 | 4.18 | inactive |
| CD53 | 1 | -0.937 | -3.62 | 3.6 | inactive |
| CD53 | 2 | -0.0649 | 2.51 | 5.01 | inactive |
| CD53 | 3 | 4.28 | 33.1 | 16.5 | inactive |
| FRRS1 | 1 | 1.57 | 14 | 10.4 | inactive |
| FRRS1 | 2 | -0.534 | -0.79 | 4 | inactive |
| FRRS1 | 3 | -0.623 | -1.41 | 5.29 | inactive |
| CRYGS | 1 | 0.675 | 7.72 | 8.92 | inactive |
| CRYGS | 2 | -0.218 | 1.43 | 4.61 | inactive |
| CRYGS | 3 | 2.89 | 23.3 | 12.7 | inactive |
| NAT9 | 1 | -0.0908 | 2.33 | 4.75 | inactive |
| NAT9 | 2 | 0.492 | 6.43 | 9.08 | inactive |
| NAT9 | 3 | -1.06 | -4.5 | 2.69 | inactive |
| GPN2 | 1 | 1.76 | 15.4 | 9.69 | inactive |
| GPN2 | 2 | 5.05 | 38.5 | 18.5 | active |
| GPN2 | 3 | -0.177 | 1.72 | 6.74 | inactive |
| LINC02905 | 1 | 0.00349 | 2.99 | 4.78 | inactive |
| LINC02905 | 2 | -0.231 | 1.34 | 3.92 | inactive |
| LINC02905 | 3 | 1.43 | 13 | 7.55 | inactive |
| HOXB8 | 1 | 2.39 | 19.8 | 13.2 | inactive |
| HOXB8 | 2 | 0.859 | 9.01 | 7.51 | inactive |
| HOXB8 | 3 | -0.211 | 1.48 | 5.58 | inactive |
| BPIFA2 | 1 | 0.663 | 7.63 | 7.05 | inactive |
| BPIFA2 | 2 | 1.43 | 13 | 7.23 | inactive |
| BPIFA2 | 3 | -0.756 | -2.35 | 1.73 | inactive |
| OR8K1 | 1 | -0.952 | -3.73 | 2.49 | inactive |
| OR8K1 | 2 | -0.0911 | 2.33 | 4.42 | inactive |
| OR8K1 | 3 | 2.32 | 19.3 | 12.9 | inactive |
| APBB1IP | 1 | -1.43 | -7.11 | 1.06 | inactive |
| APBB1IP | 2 | -0.505 | -0.586 | 4.02 | inactive |
| APBB1IP | 3 | -0.314 | 0.755 | 3.44 | inactive |
| KATNAL1 | 1 | 0.103 | 3.69 | 5.53 | inactive |
| KATNAL1 | 2 | 0.308 | 5.13 | 7.57 | inactive |
| KATNAL1 | 3 | -0.566 | -1.02 | 4.41 | inactive |
| SAT1 | 1 | -0.214 | 1.46 | 4.63 | inactive |
| SAT1 | 2 | -0.963 | -3.8 | 3.67 | inactive |
| SAT1 | 3 | -0.535 | -0.795 | 4.38 | inactive |
| ING3 | 1 | 0.5 | 6.48 | 6.29 | inactive |
| ING3 | 2 | 0.2 | 4.37 | 5.86 | inactive |
| ING3 | 3 | 0.434 | 6.02 | 8.69 | inactive |
| OR6S1 | 1 | -0.516 | -0.665 | 3.92 | inactive |
| OR6S1 | 2 | -1.06 | -4.5 | 2.44 | inactive |
| OR6S1 | 3 | -0.367 | 0.383 | 3.43 | inactive |

Called active, among the entries above:
| Target gene | siRNA no. | G2 robust z-score | G2 cells, % of GMNN control | raw share of cells in G2 (%) | outcome |
| --- | --- | --- | --- | --- | --- |
| IL9R | 3 | 9.37 | 68.9 | 30.1 | active |
| MORF4L2 | 3 | 5.44 | 41.3 | 20.8 | active |
| GPN2 | 2 | 5.05 | 38.5 | 18.5 | active |
